Measurements published in PubChem BioAssay AID493014 (National Center for Advancing Translational Sciences (NCATS), 2011).
The other results are listed elsewhere or left out. These are further read-outs of the screen, such as a control signal, another cell line or another target. No call is given for them. Compounds called inactive in the main read-out are mostly missing here. Potencies come from curve fits of mixed quality, noted in brackets.

Test: qHTS Assay to Find Inhibitors of Chronic Active B-Cell Receptor Signaling
Conditions: ABC-DLBCL IkBa-CBG/CBR reporter, luminescence ratio (green luciferase fused to IkBa over red control in TMD8 lymphoma cells), 4 h
In short: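 Doxycycline induced both beetle luciferases in TMD8 lymphoma cells; IKK-driven degradation limits the IkappaBalpha-fused green signal, while red luminescence normalises for cell number and nonspecific effects. Compounds tested up to 46 uM, 4 hrs.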

[1] = measured here: CBR red luminescence, cell number
[2] = measured here: IkBa-CBG green luminescence

CCOC(=O)C1=C(CSCc2ccccc2)NC(=O)NC1c1cc(C)ccc1C (stereo not drawn)
AC50 [1]: 2.59 µM [falling, full curve]

Cc1ccc(C(=O)CCC2CCCCC2=O)cc1 (stereo not drawn)
AC50 [1]: 6.51 µM [rising, single point]

Cc1cc(OC(C)C(=O)Nc2ccc(S(=O)(=O)Nc3onc(C)c3C)cc2)cc(C)c1Cl (stereo not drawn)
AC50 [1]: 14.1 µM [falling, single point]

CC1Cc2nc(SCC(=O)Nc3ccc4c(c3)OCO4)n(Cc3ccccc3)c(=O)c2S1 (stereo not drawn)
AC50 [1]: 29.1 µM [falling, single point]

CCN(CC)c1ccc(/C=N/N2CCOCC2)c(O)c1
AC50 [1]: 5.8 µM [rising, full curve]

COc1ccc(-c2coc3cc(OC)cc(OC)c3c2=O)cc1
AC50 [1]: 11.2 µM [falling, single point]

COc1ccc(Nc2ccnc3ccccc23)cc1
AC50 [1]: 1.12 µM [falling, partial curve, poor fit]

NC(=O)c1nsc(C(=O)N(Cc2cccnc2)C(C(=O)NCc2ccc(F)cc2)c2ccc(O)cc2)c1N (stereo not drawn)
AC50 [1]: 2.51 µM [rising, partial curve]

CCCn1c(SCC(=O)N2CCCC2=O)nc2ccccc2c1=O
AC50 [1]: 16.4 µM [falling, single point]

O=C1CC(c2ccc3c(c2)OCCO3)Oc2ccccc21 (stereo not drawn)
AC50 [1]: 35.5 µM [falling, single point]

CCCC(=O)Nc1ccc(-c2nc3cc(C)c(C)cc3o2)cc1
AC50 [1]: 2.82 µM [rising, full curve, poor fit]

Cn1c(CSCc2ccccc2Cl)nnc1SCC(=O)Nc1nccs1
AC50 [1]: 3.66 µM [falling, full curve, poor fit]

CC1(CCc2ccccc2)NC(=O)N(CC(=O)Nc2ccccc2)C1=O (stereo not drawn)
AC50 [1]: 31.6 µM [falling, single point]

NS(=O)(=O)c1ccc(N/N=C/c2cn(-c3ccccc3)nc2-c2cccs2)cc1
AC50 [2]: 20.6 µM [rising, partial curve, poor fit]

c1ccc(-c2ccccc2OCCCCN2CCCCCC2)cc1
AC50 [1]: 8.91 µM [falling, single point]

COC(=O)N1C(=O)[C@](c2ccccc2)(C2CCCCC2)N1C(=O)OC
AC50 [1]: 2.82 µM [falling, full curve]

COc1cccc2sc(N(CCN(C)C)C(=O)/C=C/c3cccs3)nc12
AC50 [1]: 14.1 µM [falling, single point]

O=c1c2ccccc2sn1-c1ccc(F)cc1
AC50 [1]: 18.4 µM [falling, partial curve] | AC50 [2]: 23.1 µM [falling, single point]

C=C(C)Cn1c(N2CCCC2)nc2c1c(=O)n(C)c(=O)n2C
AC50 [1]: 2.82 µM [falling, partial curve, poor fit]

COc1ccc(/C=C2\SC(=O)N(CCC(=O)N(C)C3CCS(=O)(=O)C3)C2=O)cc1 (stereo not drawn)
AC50 [1]: 22.4 µM [falling, single point]

O=C(c1cccnc1)N1CCN(S(=O)(=O)c2ccc3ccccc3c2)CC1
AC50 [1]: 0.517 µM [falling, full curve, poor fit] | AC50 [2]: 0.651 µM [rising, partial curve, poor fit]

CCOC(=O)C1CCN(Cc2ccc(F)c(F)c2)CC1
AC50 [1]: 0.411 µM [rising, partial curve, poor fit]

Cc1cc(NC(=O)C(C)C)ncc1NC(=O)c1cccc(F)c1
AC50 [1]: 6.31 µM [falling, single point]

C[C@@H]1C=C[C@](Cc2ccccc2)(C(=O)NCCc2c[nH]c3ccccc23)N1C(=O)c1ccccc1
AC50 [1]: 11.6 µM [falling, partial curve]

CCCCNC(=O)COC(=O)c1ccc(Cl)c(S(N)(=O)=O)c1
AC50 [1]: 0.206 µM [falling, full curve, poor fit]

CCCSc1nsc(NC(=O)CCC)n1
AC50 [1]: 35.5 µM [falling, single point]

COc1ccc(-c2noc(-c3ccccc3-c3ccccc3)n2)cc1
AC50 [1]: 12.6 µM [rising, partial curve]

COc1ccc(NCc2n[nH]nc2-c2ccccc2)cc1Cl
AC50 [1]: 9.2 µM [rising, partial curve]

COc1ccc(CC(=O)NNC(=O)c2ccc(SCc3cc(F)ccc3F)c([N+](=O)[O-])c2)cc1
AC50 [1]: 17.8 µM [rising, single point]

Nc1nc(N)c(C=Nc2ccc(Br)cc2)c(Nc2ccc(Br)cc2)n1
AC50 [1]: 8.91 µM [rising, partial curve]

CC1CCN(c2nc3ccc(C(=O)N4CCN(Cc5ccc6c(c5)OCO6)CC4)cc3s2)CC1
AC50 [1]: 7.31 µM [falling, partial curve]

COc1ccccc1N(CC(=O)NC1CCCCC1)C(=O)CCC(=O)Nc1ccccn1
AC50 [1]: 8.2 µM [falling, partial curve, poor fit]

CSc1ccccc1NC(=O)CN(C)C(=O)Cc1c[nH]c2ccccc12
AC50 [1]: 16.4 µM [falling, single point]

O=C(c1ccc2c3n(nc2c1)-c1ccc(Cl)cc1CO3)N1CCCCC1
AC50 [1]: 0.708 µM [falling, full curve, poor fit]

CCC(C)(C(=O)NC1CCCC1)N(Cc1cccs1)C(=O)Cc1cccs1 (stereo not drawn)
AC50 [1]: 0.82 µM [rising, full curve, poor fit]

Cc1ccc(NC(=S)/C(=C(\[O-])c2ccc(Cl)s2)[n+]2cccc(CO)c2)cc1C
AC50 [1]: 4.47 µM [falling, full curve, poor fit]

O=C(CSc1nnc2[nH]c(=O)cc(-c3ccccc3)n12)Nc1ccc(F)cc1F
AC50 [1]: 2.82 µM [falling, full curve]

COC(=O)c1cn(NC(=O)/C=C/c2cccc(OC)c2OC)c(=O)c2ccccc12
AC50 [1]: 18.4 µM [rising, partial curve]

COc1cc(C(=O)N/N=C(\Cc2ncc[nH]2)c2ccccc2)cc(OC)c1OC
AC50 [1]: 25.1 µM [rising, partial curve] | AC50 [2]: 22.4 µM [falling, partial curve]

Cc1ccnc(NC(=O)c2sc3ccccc3c2Cl)c1
AC50 [1]: 14.6 µM [falling, single point]
